Assay results reported in publication PMC8484605, “A complex of BRCA2 and PP2A-B56 is required for DNA repair by homologous recombination” (Nature Communications, 2021).
No constants are given. Whether binding was seen depends on the method and setting. Some results given as binding are weak or reduced against the parent protein; the word gives no strength. Where a sequence is shown, tags or fusion partners need not be part of it.

Protein sequences, listed by entry. Tags and fused reporters are not part of them.
UniProt Q15172: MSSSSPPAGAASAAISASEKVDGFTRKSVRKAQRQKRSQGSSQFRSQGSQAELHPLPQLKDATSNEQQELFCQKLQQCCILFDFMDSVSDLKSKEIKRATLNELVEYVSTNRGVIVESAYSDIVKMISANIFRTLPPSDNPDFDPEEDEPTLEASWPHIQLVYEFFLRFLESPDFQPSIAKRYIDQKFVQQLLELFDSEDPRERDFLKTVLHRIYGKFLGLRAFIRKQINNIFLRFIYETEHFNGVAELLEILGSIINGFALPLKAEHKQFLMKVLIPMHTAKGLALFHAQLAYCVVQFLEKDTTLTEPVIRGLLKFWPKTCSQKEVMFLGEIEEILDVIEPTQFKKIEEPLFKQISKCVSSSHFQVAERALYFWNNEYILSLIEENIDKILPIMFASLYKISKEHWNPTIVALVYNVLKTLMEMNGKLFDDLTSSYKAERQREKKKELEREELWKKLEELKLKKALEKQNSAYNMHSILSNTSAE

Biological target: T1, His-tagged B56α (UniProt Q15172 1-486)
T1 construct: source: E. coli BL21 Rosetta2 (DE3) R3 T1, purified (Ni column, Superdex 200)
Assay: SEC; 100 μg B56α incubated with 40 μg GST or GST-BRCA2 1089-1143 in 150 mM NaCl, 25 mM Tris 8.0, 10% glycerol, 1 mM DTT; Superdex 200 10/300; fractions on SDS-PAGE, Coomassie; both purified

- binding: binds
B1: GST-BRCA2^1089–1143 WT (domain or fragment, UniProt P51587 1089-1143)
chain: QMLFSKQDFNSNHNLTPSQKAEITELSTILEESGSQFEFTQFRKPSYILQKSTFE
